Results are given in words; binding and its absence hold for the method and conditions named. In cells and extracts the contact can be indirect. Binding can be weak; no strength is given.
Biological target: full length CPE-GFP (carboxypeptidase E tagged at the C-terminal with GFP) (UniProt P16870)
Test: co-IP

Protein sequences, listed by entry. Tags and fused reporters are not part of them. Lines headed by an entry give the natural chain unless they say otherwise; changes in a name come on top. Residues count along the entry.
UniProt P16870: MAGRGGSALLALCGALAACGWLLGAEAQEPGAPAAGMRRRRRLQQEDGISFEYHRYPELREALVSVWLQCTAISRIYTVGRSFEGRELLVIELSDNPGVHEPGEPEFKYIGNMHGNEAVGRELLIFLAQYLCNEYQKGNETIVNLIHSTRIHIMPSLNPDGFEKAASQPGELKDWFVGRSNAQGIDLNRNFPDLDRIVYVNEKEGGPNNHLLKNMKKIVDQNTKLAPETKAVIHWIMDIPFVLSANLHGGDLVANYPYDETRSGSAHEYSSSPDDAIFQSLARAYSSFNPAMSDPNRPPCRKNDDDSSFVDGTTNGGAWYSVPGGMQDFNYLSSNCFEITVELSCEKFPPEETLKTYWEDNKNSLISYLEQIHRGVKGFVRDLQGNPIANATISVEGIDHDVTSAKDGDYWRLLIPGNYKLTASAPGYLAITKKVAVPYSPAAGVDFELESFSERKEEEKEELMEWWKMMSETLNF
UniProt P11021, residues 19-654: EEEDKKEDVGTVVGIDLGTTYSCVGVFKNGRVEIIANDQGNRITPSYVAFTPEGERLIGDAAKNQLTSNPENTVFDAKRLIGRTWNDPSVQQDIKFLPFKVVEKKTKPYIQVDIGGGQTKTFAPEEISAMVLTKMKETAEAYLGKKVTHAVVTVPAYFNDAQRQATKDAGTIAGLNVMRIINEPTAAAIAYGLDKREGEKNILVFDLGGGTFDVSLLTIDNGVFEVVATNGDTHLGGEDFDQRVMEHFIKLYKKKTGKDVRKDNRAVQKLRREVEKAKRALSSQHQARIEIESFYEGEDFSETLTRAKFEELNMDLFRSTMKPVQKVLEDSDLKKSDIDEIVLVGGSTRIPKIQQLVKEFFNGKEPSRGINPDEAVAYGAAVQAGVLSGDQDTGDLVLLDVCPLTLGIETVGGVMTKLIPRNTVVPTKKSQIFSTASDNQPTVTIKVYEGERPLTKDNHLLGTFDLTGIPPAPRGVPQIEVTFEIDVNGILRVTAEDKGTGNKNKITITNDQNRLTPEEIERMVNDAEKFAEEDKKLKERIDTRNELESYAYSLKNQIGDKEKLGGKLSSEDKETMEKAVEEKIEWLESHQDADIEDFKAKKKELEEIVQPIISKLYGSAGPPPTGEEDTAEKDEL

Q: “GRP78-mCherry (from UniProt P11021 19-654)” was tested. Which binding did it give?
A: binds

Source: article doi:10.1101/2021.06.06.447232
